Where a name gives a salt, the structure may show the parent alone. The list shows a part of the results. The calls rarely recur for the same compound in another form.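 Kinases were expressed as nanoluciferase fusions in K562 cells and luminescence was read every 4 h between 2 and 18 h as percent of control, DMSO set to 100% and a positive control to 0%. A time point counts as decreased when the signal drops significantly (2 sigma). The hit call is the authors' own, does not follow from the count of time points alone, and its rule is not shown.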
Assays:
Test in all cases: kinase-Nluc reporter destabilization hit call (1 = scored as downregulated) (binary); higher = compound decreases kinase abundance
Settings in all cases: K562; 2-18 h
CDK7 = CDK7 (UniProt P50613)
CDK9 = CDK9 (UniProt P50750)
CHEK2 = CHEK2 (UniProt O96017)
CSF1R = CSF1R (UniProt P07333)
CSK = CSK (UniProt P41240)
CSNK1A1 = CSNK1A1 (UniProt P48729)
CSNK1D = CSNK1D (UniProt P48730)
DDR1 = DDR1 (UniProt Q08345)
DYRK1B = DYRK1B (UniProt Q9Y463)
DYRK2 = DYRK2 (UniProt Q92630)

Amino acid sequences for entries named in this document (tags omitted). A change or cut given only in a name is not applied to a line headed by its entry.
UniProt P50613: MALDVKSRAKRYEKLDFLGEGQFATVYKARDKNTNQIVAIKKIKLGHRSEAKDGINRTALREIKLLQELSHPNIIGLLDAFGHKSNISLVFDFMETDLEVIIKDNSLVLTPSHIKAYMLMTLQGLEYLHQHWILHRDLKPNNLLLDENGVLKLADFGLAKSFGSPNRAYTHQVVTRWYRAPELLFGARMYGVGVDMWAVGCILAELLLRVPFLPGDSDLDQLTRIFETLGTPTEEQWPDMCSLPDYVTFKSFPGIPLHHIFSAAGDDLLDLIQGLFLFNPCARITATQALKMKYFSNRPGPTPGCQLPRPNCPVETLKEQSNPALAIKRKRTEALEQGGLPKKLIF
UniProt P50750, whole entry: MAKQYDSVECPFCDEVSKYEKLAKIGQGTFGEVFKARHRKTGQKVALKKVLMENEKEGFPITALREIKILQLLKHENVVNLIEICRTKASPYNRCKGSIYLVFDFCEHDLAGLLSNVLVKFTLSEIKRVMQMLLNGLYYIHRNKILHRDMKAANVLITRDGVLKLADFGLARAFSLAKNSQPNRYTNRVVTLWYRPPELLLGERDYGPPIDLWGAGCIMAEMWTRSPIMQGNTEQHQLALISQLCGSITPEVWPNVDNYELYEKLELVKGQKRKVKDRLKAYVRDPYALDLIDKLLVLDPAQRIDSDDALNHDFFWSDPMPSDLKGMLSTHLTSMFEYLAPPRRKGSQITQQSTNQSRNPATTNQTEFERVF
UniProt O96017, whole entry: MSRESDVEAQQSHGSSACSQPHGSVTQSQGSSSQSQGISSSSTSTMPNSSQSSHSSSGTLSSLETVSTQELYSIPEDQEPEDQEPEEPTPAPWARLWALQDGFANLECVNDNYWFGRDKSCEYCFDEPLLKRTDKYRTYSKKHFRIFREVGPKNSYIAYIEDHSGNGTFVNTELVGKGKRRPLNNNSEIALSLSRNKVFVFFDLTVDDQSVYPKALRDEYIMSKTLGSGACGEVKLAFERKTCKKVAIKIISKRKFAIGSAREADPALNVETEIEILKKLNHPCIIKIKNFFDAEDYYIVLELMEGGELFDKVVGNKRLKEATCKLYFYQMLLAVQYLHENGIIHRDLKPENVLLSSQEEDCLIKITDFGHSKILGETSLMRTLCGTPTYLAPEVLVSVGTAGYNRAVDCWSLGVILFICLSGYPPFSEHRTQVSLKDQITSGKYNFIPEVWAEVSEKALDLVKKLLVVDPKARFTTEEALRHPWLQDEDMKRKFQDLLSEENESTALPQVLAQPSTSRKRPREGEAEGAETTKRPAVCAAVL
UniProt P07333, whole entry: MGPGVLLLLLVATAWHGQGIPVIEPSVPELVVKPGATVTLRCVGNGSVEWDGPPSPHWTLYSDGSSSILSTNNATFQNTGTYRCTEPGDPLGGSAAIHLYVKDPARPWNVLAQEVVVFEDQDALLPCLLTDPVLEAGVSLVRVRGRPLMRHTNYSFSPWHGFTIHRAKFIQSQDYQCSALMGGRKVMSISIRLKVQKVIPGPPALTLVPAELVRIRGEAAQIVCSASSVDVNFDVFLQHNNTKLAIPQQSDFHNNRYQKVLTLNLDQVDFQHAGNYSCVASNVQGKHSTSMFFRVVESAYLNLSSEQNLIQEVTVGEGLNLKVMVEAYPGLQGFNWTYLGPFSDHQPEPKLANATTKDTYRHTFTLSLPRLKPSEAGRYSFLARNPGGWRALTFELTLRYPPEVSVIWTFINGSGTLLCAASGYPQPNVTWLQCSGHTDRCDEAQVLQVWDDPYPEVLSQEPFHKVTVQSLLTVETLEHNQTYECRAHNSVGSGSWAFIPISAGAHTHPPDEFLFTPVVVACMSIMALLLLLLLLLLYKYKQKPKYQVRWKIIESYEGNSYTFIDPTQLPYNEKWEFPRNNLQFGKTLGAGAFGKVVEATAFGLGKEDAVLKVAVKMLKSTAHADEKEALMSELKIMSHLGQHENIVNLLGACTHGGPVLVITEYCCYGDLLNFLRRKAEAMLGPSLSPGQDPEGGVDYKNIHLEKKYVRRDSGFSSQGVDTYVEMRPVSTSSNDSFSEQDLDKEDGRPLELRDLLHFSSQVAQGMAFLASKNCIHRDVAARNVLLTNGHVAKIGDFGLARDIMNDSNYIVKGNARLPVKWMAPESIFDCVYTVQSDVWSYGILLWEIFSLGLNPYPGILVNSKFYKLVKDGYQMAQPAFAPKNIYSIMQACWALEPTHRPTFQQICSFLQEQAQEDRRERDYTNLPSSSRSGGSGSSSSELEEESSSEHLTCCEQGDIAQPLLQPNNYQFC
UniProt P41240: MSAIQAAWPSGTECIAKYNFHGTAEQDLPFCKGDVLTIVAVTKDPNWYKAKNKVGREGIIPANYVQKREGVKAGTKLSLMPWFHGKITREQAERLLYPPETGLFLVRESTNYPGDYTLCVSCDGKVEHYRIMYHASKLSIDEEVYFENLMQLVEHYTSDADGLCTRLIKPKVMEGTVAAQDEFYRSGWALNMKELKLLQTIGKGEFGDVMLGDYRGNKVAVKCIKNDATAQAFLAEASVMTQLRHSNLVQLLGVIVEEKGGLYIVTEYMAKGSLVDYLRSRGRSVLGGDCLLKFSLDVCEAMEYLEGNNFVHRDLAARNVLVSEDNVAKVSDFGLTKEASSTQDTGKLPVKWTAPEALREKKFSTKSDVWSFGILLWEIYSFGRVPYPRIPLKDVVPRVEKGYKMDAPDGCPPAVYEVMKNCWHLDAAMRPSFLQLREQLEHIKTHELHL
UniProt P48729: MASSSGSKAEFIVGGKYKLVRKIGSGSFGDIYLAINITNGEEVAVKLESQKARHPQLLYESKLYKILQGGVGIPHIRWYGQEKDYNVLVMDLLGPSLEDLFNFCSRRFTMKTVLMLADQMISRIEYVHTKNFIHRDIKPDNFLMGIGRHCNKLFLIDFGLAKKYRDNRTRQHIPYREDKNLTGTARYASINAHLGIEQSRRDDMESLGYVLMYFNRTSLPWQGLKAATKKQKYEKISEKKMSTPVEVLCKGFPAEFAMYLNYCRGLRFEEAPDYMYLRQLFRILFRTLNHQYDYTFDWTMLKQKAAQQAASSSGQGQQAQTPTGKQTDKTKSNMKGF
UniProt P48730: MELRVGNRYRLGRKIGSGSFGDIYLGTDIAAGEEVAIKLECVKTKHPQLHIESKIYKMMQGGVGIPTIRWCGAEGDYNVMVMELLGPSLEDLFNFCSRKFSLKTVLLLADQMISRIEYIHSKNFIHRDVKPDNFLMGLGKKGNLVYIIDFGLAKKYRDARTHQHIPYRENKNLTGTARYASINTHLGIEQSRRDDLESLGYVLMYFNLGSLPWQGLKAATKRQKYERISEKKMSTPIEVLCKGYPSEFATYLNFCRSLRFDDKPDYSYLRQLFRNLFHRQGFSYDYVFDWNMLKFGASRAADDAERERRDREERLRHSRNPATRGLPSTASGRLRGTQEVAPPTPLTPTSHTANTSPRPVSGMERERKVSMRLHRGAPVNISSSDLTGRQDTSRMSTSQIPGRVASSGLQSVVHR
UniProt Q08345: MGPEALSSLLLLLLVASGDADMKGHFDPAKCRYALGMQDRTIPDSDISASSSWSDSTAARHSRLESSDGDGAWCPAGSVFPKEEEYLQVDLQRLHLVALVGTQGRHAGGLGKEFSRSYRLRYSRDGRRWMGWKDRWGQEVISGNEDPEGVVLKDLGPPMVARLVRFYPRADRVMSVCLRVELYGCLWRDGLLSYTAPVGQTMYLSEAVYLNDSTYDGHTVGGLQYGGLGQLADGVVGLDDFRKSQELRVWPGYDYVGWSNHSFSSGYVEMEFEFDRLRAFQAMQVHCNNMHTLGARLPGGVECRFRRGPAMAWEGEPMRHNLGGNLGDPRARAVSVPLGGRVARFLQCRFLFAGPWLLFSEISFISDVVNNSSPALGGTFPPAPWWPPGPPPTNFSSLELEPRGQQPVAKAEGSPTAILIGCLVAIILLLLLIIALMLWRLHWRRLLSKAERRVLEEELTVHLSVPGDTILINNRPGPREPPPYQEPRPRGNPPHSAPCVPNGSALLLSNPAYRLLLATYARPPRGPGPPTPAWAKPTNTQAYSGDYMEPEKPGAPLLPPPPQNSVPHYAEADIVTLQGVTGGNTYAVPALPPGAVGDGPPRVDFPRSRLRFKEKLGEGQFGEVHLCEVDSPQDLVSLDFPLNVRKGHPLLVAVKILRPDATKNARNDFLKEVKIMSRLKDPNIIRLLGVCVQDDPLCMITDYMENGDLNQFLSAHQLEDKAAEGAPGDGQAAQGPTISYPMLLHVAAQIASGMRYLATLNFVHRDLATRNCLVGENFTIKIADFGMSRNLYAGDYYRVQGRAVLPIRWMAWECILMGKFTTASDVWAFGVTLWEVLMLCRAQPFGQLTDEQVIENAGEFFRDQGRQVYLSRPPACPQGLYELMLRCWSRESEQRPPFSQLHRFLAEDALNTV
UniProt Q9Y463, whole entry, looked up: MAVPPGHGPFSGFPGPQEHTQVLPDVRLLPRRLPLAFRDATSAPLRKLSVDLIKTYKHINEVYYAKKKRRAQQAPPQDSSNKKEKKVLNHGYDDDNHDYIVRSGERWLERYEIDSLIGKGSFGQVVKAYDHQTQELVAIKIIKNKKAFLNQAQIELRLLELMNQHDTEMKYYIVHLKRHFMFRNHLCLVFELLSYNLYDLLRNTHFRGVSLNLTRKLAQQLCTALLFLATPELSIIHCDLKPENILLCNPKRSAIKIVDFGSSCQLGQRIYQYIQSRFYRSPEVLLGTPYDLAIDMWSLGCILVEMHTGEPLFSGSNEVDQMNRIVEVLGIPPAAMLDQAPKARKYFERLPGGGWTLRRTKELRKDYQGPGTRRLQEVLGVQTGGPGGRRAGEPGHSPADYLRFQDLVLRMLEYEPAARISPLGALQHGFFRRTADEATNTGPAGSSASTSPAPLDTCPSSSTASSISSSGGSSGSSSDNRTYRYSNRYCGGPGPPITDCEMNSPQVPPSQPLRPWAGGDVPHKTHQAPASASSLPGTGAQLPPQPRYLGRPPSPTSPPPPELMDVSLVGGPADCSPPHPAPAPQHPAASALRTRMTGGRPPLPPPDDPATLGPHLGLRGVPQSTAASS
UniProt Q92630: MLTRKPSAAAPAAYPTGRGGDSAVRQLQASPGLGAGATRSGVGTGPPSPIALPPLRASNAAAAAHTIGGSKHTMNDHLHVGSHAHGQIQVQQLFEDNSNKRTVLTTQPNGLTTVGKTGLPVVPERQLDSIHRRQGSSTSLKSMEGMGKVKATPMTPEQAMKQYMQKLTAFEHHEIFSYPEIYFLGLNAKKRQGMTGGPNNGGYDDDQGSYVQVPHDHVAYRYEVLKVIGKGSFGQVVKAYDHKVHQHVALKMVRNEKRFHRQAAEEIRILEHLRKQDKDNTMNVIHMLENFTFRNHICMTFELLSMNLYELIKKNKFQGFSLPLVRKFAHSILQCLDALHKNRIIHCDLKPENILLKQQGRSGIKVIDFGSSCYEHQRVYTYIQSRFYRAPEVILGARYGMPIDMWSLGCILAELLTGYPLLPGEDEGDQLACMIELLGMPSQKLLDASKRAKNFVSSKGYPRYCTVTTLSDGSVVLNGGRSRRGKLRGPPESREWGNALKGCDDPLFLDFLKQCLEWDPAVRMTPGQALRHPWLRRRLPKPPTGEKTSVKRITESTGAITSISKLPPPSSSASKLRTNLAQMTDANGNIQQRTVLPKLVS

Measured: kinase-Nluc reporter destabilization hit call

Nc1n[nH]c(N)c1N=Nc1ccc(O)cc1 (10 µM)
inactive: CDK7 = 0 | CDK9 = 0 | CHEK2 = 0 | CSF1R 0 | CSK 0 | CSNK1A1 = 0 | CSNK1D 0 | DDR1 = 0 | DYRK1B 0 | DYRK2 = 0

O=c1ccc2cc(O)c(O)cc2o1 [Esculetin] (10 µM)
inactive: CDK7 = 0 | CDK9 = 0 | CHEK2 = 0 | CSF1R 0 | CSK 0 | CSNK1A1 = 0 | CSNK1D 0 | DDR1 = 0 | DYRK1B 0 | DYRK2 = 0

O=S(=O)(c1cccc2c(Cl)cccc12)N1CCCNCC1 (10 µM)
inactive: CDK7 = 0 | CDK9 = 0 | CHEK2 = 0 | CSF1R 0 | CSK 0 | CSNK1A1 = 0 | CSNK1D 0 | DDR1 = 0 | DYRK1B 0 | DYRK2 = 0

CN(c1ccc(C(F)(F)F)cc1)S(=O)(=O)c1ccc(C(=O)Nc2nc(-c3ccccn3)cs2)cc1 (2.5 µM)
inactive: CDK7 = 0 | CDK9 = 0 | CHEK2 = 0 | CSF1R 0 | CSK 0 | CSNK1A1 = 0 | CSNK1D 0 | DDR1 = 0 | DYRK1B 0 | DYRK2 = 0

O=C1c2c(O)cc(O)cc2O[C@H](c2cc(O)c(O)c(O)c2)[C@H]1O [Dihydromyricetin] (10 µM)
inactive: CDK7 = 0 | CDK9 = 0 | CHEK2 = 0 | CSF1R 0 | CSK 0 | CSNK1A1 = 0 | CSNK1D 0 | DDR1 = 0 | DYRK1B 0 | DYRK2 = 0

Oc1ccc2ccccc2c1SSc1c(O)ccc2ccccc12 (10 µM)
inactive: CDK7 = 0 | CDK9 = 0 | CHEK2 = 0 | CSF1R 0 | CSK 0 | CSNK1A1 = 0 | CSNK1D 0 | DDR1 = 0 | DYRK1B 0 | DYRK2 = 0

O=C(N/N=C/c1ccc([N+](=O)[O-])o1)c1ccc(O)cc1 [Nifuroxazide] (10 µM)
inactive: CDK7 = 0 | CDK9 = 0 | CHEK2 = 0 | CSF1R 0 | CSK 0 | CSNK1A1 = 0 | CSNK1D 0 | DDR1 = 0 | DYRK1B 0 | DYRK2 = 0

CC(C)(C)c1ccc(C(=O)Nc2cn3cc(-n4ccnc4)ccc3n2)cc1 (10 µM)
inactive: CDK7 = 0 | CDK9 = 0 | CHEK2 = 0 | CSF1R 0 | CSK 0 | CSNK1A1 = 0 | CSNK1D 0 | DDR1 = 0 | DYRK1B 0 | DYRK2 = 0

Cc1cc(=O)[nH]c(=S)[nH]1 [Methylthiouracil] (10 µM)
inactive: CDK7 = 0 | CDK9 = 0 | CHEK2 = 0 | CSF1R 0 | CSK 0 | CSNK1A1 = 0 | CSNK1D 0 | DDR1 = 0 | DYRK1B 0 | DYRK2 = 0

CN1CCC(c2ccccc2CC(C)(C)Nc2nc(N3CCOCC3)nc(-n3c(S(C)(=O)=O)nc4ccccc43)n2)CC1 (10 µM)
inactive: CDK7 = 0 | CDK9 = 0 | CHEK2 = 0 | CSF1R 0 | CSK 0 | CSNK1A1 = 0 | CSNK1D 0 | DDR1 = 0 | DYRK1B 0 | DYRK2 = 0

CC(C)Cn1cc(C#N)c2cc(Oc3ccc(NC(=O)[C@@H]4CCCN4)cc3)ccc21 (10 µM)
inactive: CDK7 = 0 | CDK9 = 0 | CHEK2 = 0 | CSF1R 0 | CSK 0 | CSNK1A1 = 0 | CSNK1D 0 | DDR1 = 0 | DYRK1B 0 | DYRK2 = 0

Two neighbouring records already listed, for reference:
CN1CCC(c2ccccc2CC(C)(C)Nc2nc(N3CCOCC3)nc(-n3c(S(C)(=O)=O)nc4ccccc43)n2)CC1 (10 µM)
inactive: CDK7 = 0 | CDK9 = 0 | CHEK2 = 0 | CSF1R 0 | CSK 0 | CSNK1A1 = 0 | CSNK1D 0 | DDR1 = 0 | DYRK1B 0 | DYRK2 = 0

CC(C)Cn1cc(C#N)c2cc(Oc3ccc(NC(=O)[C@@H]4CCCN4)cc3)ccc21 (10 µM)
inactive: CDK7 = 0 | CDK9 = 0 | CHEK2 = 0 | CSF1R 0 | CSK 0 | CSNK1A1 = 0 | CSNK1D 0 | DDR1 = 0 | DYRK1B 0 | DYRK2 = 0

Later entries:

COc1ccc2c(c1)C[C@H](C(=O)Nc1ccc(-c3cn[nH]c3)cc1OCCN(C)C)CO2 [Chroman 1] (10 µM)
inactive: CDK7 = 0 | CDK9 = 0 | CHEK2 = 0 | CSF1R 0 | CSK 0 | CSNK1A1 = 0 | CSNK1D 0 | DDR1 = 0 | DYRK1B 0 | DYRK2 = 0

CC[C@H](C)[C@@H]1NC(=O)[C@@H]2CCCN2C(=O)[C@@H]2CCCN2C(=O)[C@@H]2CCCN2C(=O)[C@H](CC(C)C)NC(=O)CNC(=O)CNC(=O)[C@H](Cc2ccccc2)NC1=O [Heterophyllin B] (10 µM)
inactive: CDK7 = 0 | CDK9 = 0 | CHEK2 = 0 | CSF1R 0 | CSK 0 | CSNK1A1 = 0 | CSNK1D 0 | DDR1 = 0 | DYRK1B 0 | DYRK2 = 0

CNC(=O)c1ccc(-c2cnc3ncc(Cc4ccc5ncccc5c4)n3n2)cc1F [Capmatinib] (10 µM)
inactive: CDK7 = 0 | CDK9 = 0 | CHEK2 = 0 | CSF1R 0 | CSK 0 | CSNK1A1 = 0 | CSNK1D 0 | DDR1 = 0 | DYRK1B 0 | DYRK2 = 0

C[C@@]12CCc3occc3[C@H]1CC[C@@]13C[C@@H](CC[C@H]12)[C@@](O)(CO)C3 [Cafestol] (10 µM)
inactive: CDK7 = 0 | CDK9 = 0 | CHEK2 = 0 | CSF1R 0 | CSK 0 | CSNK1A1 = 0 | CSNK1D 0 | DDR1 = 0 | DYRK1B 0 | DYRK2 = 0

CC(C)n1cnnc1-c1cccc(NC(=O)c2cc3ccc(F)cc3[nH]2)n1 (2.5 µM)
inactive: CDK7 = 0 | CDK9 = 0 | CHEK2 = 0 | CSF1R 0 | CSK 0 | CSNK1A1 = 0 | CSNK1D 0 | DDR1 = 0 | DYRK1B 0 | DYRK2 = 0

N#Cc1c[nH]c2ccc(-c3ccc(-c4c(O)cccc4O)cc3)cc12 (10 µM)
inactive: CDK7 = 0 | CDK9 = 0 | CHEK2 = 0 | CSF1R 0 | CSK 0 | CSNK1A1 = 0 | CSNK1D 0 | DDR1 = 0 | DYRK1B 0 | DYRK2 = 0

N#Cc1cn([C@@H]2O[C@H](CO)[C@@H](O)[C@H]2O)c2nc[nH]c(=O)c12 [Jaspamycin] (10 µM)
inactive: CDK7 = 0 | CDK9 = 0 | CHEK2 = 0 | CSF1R 0 | CSK 0 | CSNK1A1 = 0 | CSNK1D 0 | DDR1 = 0 | DYRK1B 0 | DYRK2 = 0

Cc1cc(/C=C2\CC/C(=C\c3cc(C)c(O)c(C)c3)C2=O)cc(C)c1O [Pentagamavunon-1] (2.5 µM)
inactive: CDK7 = 0 | CDK9 = 0 | CHEK2 = 0 | CSF1R 0 | CSK 0 | CSNK1A1 = 0 | CSNK1D 0 | DDR1 = 0 | DYRK1B 0 | DYRK2 = 0

Cn1cc(-c2ccc3nnc(Sc4ccc5nn(C)cc5c4)n3n2)cn1 [c-Met inhibitor 1] (10 µM)
inactive: CDK7 = 0 | CDK9 = 0 | CHEK2 = 0 | CSF1R 0 | CSK 0 | CSNK1A1 = 0 | CSNK1D 0 | DDR1 = 0 | DYRK1B 0 | DYRK2 = 0

Cc1c(Br)c(Br)c2c3c1nc(N1CCNCC1)n3CCC2 [SEL120-34A (monohydrochloride)] (2.5 µM)
inactive: CDK7 = 0 | CDK9 = 0 | CHEK2 = 0 | CSF1R 0 | CSK 0 | CSNK1A1 = 0 | CSNK1D 0 | DDR1 = 0 | DYRK1B 0 | DYRK2 = 0

COc1c(OCCCN2CCOCC2)ccc2c3n(c(=NC(=O)c4cnc(N)nc4)nc12)CCN3 [Copanlisib (dihydrochloride)] (10 µM)
active: CDK9 = 1
inactive: CDK7 = 0 | CHEK2 = 0 | CSF1R 0 | CSK 0 | CSNK1A1 = 0 | CSNK1D 0 | DDR1 = 0 | DYRK1B 0 | DYRK2 = 0

CC[C@H](C)[C@H](NC(=O)[C@H](CCCCN)NC(=O)[C@H](CC(C)C)NC(=O)[C@@H]1CCCN1C(=O)[C@H](CCC(=O)O)NC(=O)[C@H](Cc1ccc(O)cc1)NC(=O)[C@@H](NC(=O)[C@H](CO)NC(=O)CNC(=O)[C@H](CO)NC(=O)[C@H](CCCN=C(N)N)NC(=O)[C@H](CCCCN)NC(=O)[C@@H](NC(=O)[C@@H](N)CCCN=C(N)N)[C@@H](C)O)C(C)C)C(=O)O [Malantide] (10 µM)
inactive: CDK7 = 0 | CDK9 = 0 | CHEK2 = 0 | CSF1R 0 | CSK 0 | CSNK1A1 = 0 | CSNK1D 0 | DDR1 = 0 | DYRK1B 0 | DYRK2 = 0

C[C@]1(O)C[C@@](N)(c2ccc(-c3nc4n(c3-c3ccccc3)COc3ccncc3-4)cc2)C1 [TAS-117 (hydrochloride)] (10 µM)
inactive: CDK7 = 0 | CDK9 = 0 | CHEK2 = 0 | CSF1R 0 | CSK 0 | CSNK1A1 = 0 | CSNK1D 0 | DDR1 = 0 | DYRK1B 0 | DYRK2 = 0

O=C(Nc1nccs1)C(c1cc(F)ccc1O)N1Cc2ccccc2C1=O (stereo not given) (10 µM)
inactive: CDK7 = 0 | CDK9 = 0 | CHEK2 = 0 | CSF1R 0 | CSK 0 | CSNK1A1 = 0 | CSNK1D 0 | DDR1 = 0 | DYRK1B 0 | DYRK2 = 0

COc1ccc(S(=O)(=O)N(CCO)c2ccccc2CN(C)CC=Cc2ccc(Cl)cc2)cc1 (2.5 µM)
inactive: CDK7 = 0 | CDK9 = 0 | CHEK2 = 0 | CSF1R 0 | CSK 0 | CSNK1A1 = 0 | CSNK1D 0 | DDR1 = 0 | DYRK1B 0 | DYRK2 = 0

O=c1cc(N2CCOCC2)oc2c1ccc1ccccc12 (2 µM)
inactive: CDK7 = 0 | CDK9 = 0 | CHEK2 = 0 | CSF1R 0 | CSK 0 | CSNK1A1 = 0 | CSNK1D 0 | DDR1 = 0 | DYRK1B 0 | DYRK2 = 0

CN(C)CCCNc1ccn2ncc(-c3ccc4c(c3)OCO4)c2n1 (10 µM)
inactive: CDK7 = 0 | CDK9 = 0 | CHEK2 = 0 | CSF1R 0 | CSK 0 | CSNK1A1 = 0 | CSNK1D 0 | DDR1 = 0 | DYRK1B 0 | DYRK2 = 0
